PubChem BioAssay AID720710, VTT Finland, 2013

Test: 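siRNAs sensitising CCNE1-overexpressing U-2 OS cells to replication stress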 (primary screen)
Cell system: human U-2 OS bone cancer cells, parental and a cyclin E (CCNE1) overexpressing line
Reagents: single siRNA against human genes, 1 µM siRNA in the printed spot mix
Timing: 67 h
Conditions: half the arrays: hydroxyurea 2 mM for 16 h, then 3 h recovery; other arrays untreated
Measured: 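EdU click signal imaged per DAPI-stained nucleus at 67 h; each spot divided by its subgrid median, then z-scored relative to non-targeting control spots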
Scale: EdU z-score, cyclin E line, hydroxyurea and EdU z-score, parental, hydroxyurea and EdU z-score, cyclin E line, untreated: higher = more DNA synthesis than non-targeting controls
Shown is a random part of about 1,380 deposited reagents. 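One array per condition without replicates; hydroxyurea arrays received 2 mM for 16 h plus 3 h recovery.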 Reagents against one gene are numbered here. Not all columns of the deposit are shown.

Target gene | reagent no. | EdU z-score, cyclin E line, hydroxyurea | EdU z-score, parental, hydroxyurea | EdU z-score, cyclin E line, untreated
H4C9 | 1 | -0.442 | -1.67 | -0.567
H4C9 | 2 | 0.657 | 0.249 | -0.168
NPRL3 | 1 | -2.1 | -1.36 | 0.085
NPRL3 | 2 | 0.583 | 0.268 | 1.85
SUMO3 | 1 | 0.0785 | -1.92 | -0.921
SUMO3 | 2 | 0.926 | 4.27 | -0.833
RAD52 | 1 | -0.969 | -0.196 | -2.88
RAD52 | 2 | 0.378 | 1.81 | -0.353
UVRAG | 1 | 0.6 | -0.185 | -1.1
UVRAG | 2 | 1.25 | 1.17 | -0.351
CBX4 | 1 | -0.815 | 0.58 | -0.148
CBX4 | 2 | -0.205 | 0.635 | 1.49
POLA2 | 1 | -1.1 | -1.83 | -1.52
POLA2 | 2 | -0.629 | 0.657 | -0.246
MAPK1 | 1 | 0.247 | -1.67 | 0.365
MAPK1 | 2 | 2.84 | 1.24 | 0.442
STAG2 | 1 | -0.638 | -3.59 | -1.38
STAG2 | 2 | -0.493 | 1.26 | -1.3
BRIP1 | 1 | -2.02 | -3.24 | -0.797
BRIP1 | 2 | 0.0853 | 0.252 | -0.249
H2BC4 | 1 | -0.289 | 0.517 | -2.23
H2BC4 | 2 | 0.791 | 1.69 | -0.933
APTX | 1 | -0.0589 | 0.922 | -2.2
APTX | 2 | 0.975 | 2.26 | -0.616
H2BC15 | 1 | 0.103 | -1.27 | -0.984
H2BC15 | 2 | 1.16 | 0.645 | -0.12
HAP1 | 1 | -1.51 | 0.798 | -0.606
HAP1 | 2 | -0.0507 | 0.82 | 0.042
H2AC8 | 1 | -1.91 | -0.272 | -2.79
H2AC8 | 2 | 0.799 | 1.69 | 0.0326
EXO1 | 1 | -1.88 | -0.518 | -1.04
EXO1 | 2 | -0.522 | 1.64 | -0.795
CUL4B | 1 | 1.05 | 0.673 | -0.807
CUL4B | 2 | 1.05 | 3.27 | -0.159
TIMELESS | 1 | -0.111 | -0.249 | -1.09
TIMELESS | 2 | -0.00676 | 2.68 | 0.191
NEIL1 | 1 | -1.06 | 0.751 | -1.16
NEIL1 | 2 | -0.498 | 0.903 | -0.305
RFC2 | 1 | -0.14 | -4.35 | -1.91
RFC2 | 2 | 0.52 | 0.301 | -0.903
RAD18 | 1 | -1.36 | 0.0185 | -1.3
RAD18 | 2 | 0.721 | 1.6 | -0.804
PTMS | 1 | -1.17 | -1.39 | -1.3
PTMS | 2 | 0.509 | 1.72 | 0.13
HUS1B | 1 | 0.0786 | -1.14 | -3.39
HUS1B | 2 | 0.932 | 1.93 | -1.86
KMT5B | 1 | -0.597 | -1.16 | -1.96
KMT5B | 2 | -0.0202 | 0.0914 | -1.43
POLN | 1 | -0.114 | -2.21 | -2.33
POLN | 2 | 0.477 | 0.691 | -1.54
HMGA1 | 1 | -1.45 | -1.43 | -0.33
HMGA1 | 2 | -0.178 | 4.69 | -0.211
HDAC6 | 1 | -0.752 | -1.96 | -0.578
HDAC6 | 2 | 1.18 | 2.86 | -0.36
GTF2H1 | 1 | -1.4 | -1.11 | -2.56
GTF2H1 | 2 | -0.884 | -0.869 | -0.537
FANCA | 1 | -0.6 | -0.0101 | 0.116
FANCA | 2 | 1.45 | 0.515 | 0.361
RPS6KA5 | 1 | -0.274 | 1.32 | -1.19
RPS6KA5 | 2 | -0.185 | 2.02 | -0.381
TOP3A | 1 | -0.23 | -0.403 | -1.65
TOP3A | 2 | 0.326 | 3.37 | 0.761
CIDEB | 1 | -1.14 | -0.463 | 0.00509
CIDEB | 2 | 2.63 | 1.23 | 0.314
SMC3 | 1 | 0.485 | -3.45 | -0.717
SMC3 | 2 | 0.741 | 1.4 | -0.612
UHRF1 | 1 | -1.16 | -1.64 | -1.23
UHRF1 | 2 | -0.618 | -1.21 | -0.604
ALKBH2 | 1 | -0.313 | -3.41 | -3.76
ALKBH2 | 2 | 1.32 | 2.39 | -2.82
TWNK | 1 | -0.644 | 0.451 | -2.67
TWNK | 2 | 3.54 | 0.523 | -0.366
ATR | 1 | -0.34 | -3 | -0.00724
ATR | 2 | 0.894 | -1.83 | 1.97

9 neighbouring records from above:
Target gene | reagent no. | EdU z-score, cyclin E line, hydroxyurea | EdU z-score, parental, hydroxyurea | EdU z-score, cyclin E line, untreated
H2BC4 | 1 | -0.289 | 0.517 | -2.23
H2BC4 | 2 | 0.791 | 1.69 | -0.933
APTX | 1 | -0.0589 | 0.922 | -2.2
APTX | 2 | 0.975 | 2.26 | -0.616
H2BC15 | 1 | 0.103 | -1.27 | -0.984
H2BC15 | 2 | 1.16 | 0.645 | -0.12
HAP1 | 1 | -1.51 | 0.798 | -0.606
HAP1 | 2 | -0.0507 | 0.82 | 0.042
H2AC8 | 1 | -1.91 | -0.272 | -2.79
